# Experimental data: PubChem BioAssay AID2685 (National Center for Advancing Translational Sciences (NCATS), 2010)
# The campaign covered roughly 320,000 compounds. About 2,100 (0.66%) were called active. The shares of active, inactive and inconclusive entries below differ from those in the screen. Calls follow the shape of the dose curve; as a rule, active = well fitted inhibition curve with a large enough effect in the signal ratio, with a control signal flat (not every such curve was filed as active); inconclusive = small, poorly fitted or top-dose-only effect, or effect the other way, or a change in a side signal; inactive = flat fitted curve, though single readings scatter; the % refers to the signal ratio. Where the call is inconclusive, the potency comes from a doubtful curve fit.
# Test: qHTS Assay for Lipid Storage Modulators in Drosophila S3 Cells
# Conditions: BODIPY lipid droplet fluorescence, 18-24 h, cells fed with added oleic acid; lipid storage change, negative = inhibition: at 46.1 µM (top of the series) unless noted
# Procedure, shortened: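 Laser-scanning cytometry quantifies lipid droplet accumulation (500–530 nm total intensity; droplet/cell object ratio) in oleic acid-fed (400 uM added) Drosophila S3 cells treated with a concentration series. 20 uM Triacsin C defined 100% inhibition.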
# % is scaled to controls: 0 for no effect and ±100 for the full control effect; potency is read from the fitted curve at half-maximal effect.
Structure (SMILES),Potency,"lipid storage change, negative = inhibition"
NC(=S)Cc1nc(-c2ccccc2)cs1,"inconclusive: 32.6 µM [falling, partial curve, poor fit]",
C=C(C)C1CC=C(CN2CCC(C(=O)OCC)CC2)CC1 (configuration not stated),"inconclusive: 29.1 µM [falling, single point]",
O=c1cc(-c2ccc([N+](=O)[O-])cc2)nc2cc(-c3ccc(F)cc3)[nH]n12,,inconclusive: 16.9%
O=C(CSc1ccc(Cl)cc1)Nc1ccccc1N1CCN(C(=O)c2ccccc2)CC1,,inconclusive: 10.4%
COc1ccc(CCC(=O)Nc2cccc(S(=O)(=O)N3CCCCCC3)c2)cc1,,inconclusive
COc1ccc(OC)c(C(C(=O)NCc2ccco2)N(C(=O)Cn2nnc3ccccc32)C2CC2)c1 (configuration not stated),,inconclusive: 25.1%
CCOc1ccc(NC(=O)CCNS(=O)(=O)c2cccc3nsnc23)cc1,"inconclusive: 7.31 µM [activator, partial curve]",
Cc1oc(C(C)(C)C)cc1C(=O)Nc1cccc(C(=O)O)c1,"inconclusive: 0.058 µM [falling, full curve]",
CCN1CCc2c(OCC(=O)Nc3cccc(C)c3C)cccc2C1=O,,inconclusive: 8.5% [at 9.22 µM]
O=C(Nc1ccc2c(c1)OCO2)c1cc(-c2cccc(O)c2)on1,"inconclusive: 4.11 µM [activator, single point]",
Cc1csc(NC(=O)CSc2nnc(-c3cccnc3)o2)n1,,inconclusive: -5.82%
Cc1ccc(S(=O)(=O)Nc2cccc(C(=O)NCC(c3ccco3)N3CCCC3)c2)cc1F (configuration not stated),,inconclusive: 3.93%
CCN(C(=O)CN1CCN(Cc2ccccc2)CC1)c1c(N)n(Cc2ccccc2)c(=O)[nH]c1=O,,inconclusive: -14.8%
CCN1C(=O)[C@H]2[C@@H](c3ccc(OC)cc3)N3C(=O)CN(Cc4ccccc4)C(=O)[C@@]3(Cc3ccccc3)[C@H]2C1=O,"inconclusive: 0.411 µM [falling, single point]",
COc1c(C=O)c(CCN(C)C(=O)c2ccc(F)cc2)cc2c1OCO2,,inconclusive: 5.99%
Cc1nn(CC(=O)N(C)c2c(N)n(Cc3ccccc3)c(=O)[nH]c2=O)c(C)c1[N+](=O)[O-],"inconclusive: 29.1 µM [activator, single point]",
CCOC(=O)c1ccccc1NC(=O)C1COc2ccccc2O1 (configuration not stated),,inconclusive: 30.8%
COc1cc(CO)c(Br)cc1OCC(N)=O,"inconclusive: 29.1 µM [cytotoxic, single point]",
Cc1ccc(C(=O)NCCN2CCN(C(=O)c3ccc(C)c(C)c3)CC2)cc1C,,inconclusive: 69.5%
Cc1cc2ncc(C(=O)N=CN(C)C)cn2n1,,inconclusive: 9.6%
CC1(C)CC(=O)c2c(O)cc(OCC(=O)N3CCN(c4ccccc4)CC3)cc2O1,"inconclusive: 29.1 µM [falling, single point]",
CCN(CC)Cc1cc(CC(C(N)=O)C(N)=O)ccc1OC,,inconclusive: -6.1%
O=C(CSc1ncn[nH]1)Nc1c(F)cc(F)cc1Br,,inconclusive: 99.9%
Cc1sc2ncnc(N3CCC(C(=O)Nc4ccc(Cl)cc4Cl)CC3)c2c1C,,inconclusive

# Quoted at random: 2 records from the list.
Structure (SMILES),Potency,"lipid storage change, negative = inhibition"
Cc1nn(CC(=O)N(C)c2c(N)n(Cc3ccccc3)c(=O)[nH]c2=O)c(C)c1[N+](=O)[O-],"inconclusive: 29.1 µM [activator, single point]",
O=c1cc(-c2ccc([N+](=O)[O-])cc2)nc2cc(-c3ccc(F)cc3)[nH]n12,,inconclusive: 16.9%

# (list continues)

Structure (SMILES),Potency,"lipid storage change, negative = inhibition"
CCN(CC(=O)Nc1cc(Cl)ccc1C)C(=O)CCOc1ccccc1C,,inconclusive: -38.5%
COc1ccc(C(CNC(=O)c2ccc(-c3nc4ccccc4s3)o2)N2CCCC2)cc1 (configuration not stated),,inconclusive: 9.52%
COc1ccc(-c2cc(C(=O)N3CCCc4ccccc43)no2)cc1,"inconclusive: 6.51 µM [activator, single point]",
COc1ccc2[nH]cc(CCn3ccc(O)c(C/C=C/c4ccccc4)c3=O)c2c1,"inconclusive: 5.17 µM [cytotoxic, partial curve]",
Brc1ccc(-n2cc(-c3ccccc3)c3c(NN4CCOCC4)ncnc32)cc1,,inconclusive: 15.7%
COc1ccc(/C=C/C(=O)c2cc(F)ccc2OC(=O)c2ccc(OC)c(OC)c2)cc1OC,"inconclusive: 29.1 µM [falling, single point]",
Cc1ccccc1NC(=O)C(=O)Nc1ccccc1C,,inactive
N/C(=N\N=C\c1ccc2c(c1)OCO2)SC1CC(=O)N(c2ccc(C(=O)O)cc2)C1=O (configuration not stated),,inconclusive: 0.753%
Cc1cccc(NC(=S)NC(=O)CCc2ccccc2)c1C,,inconclusive: 2.65%
CC(=O)c1ccccc1OCCOc1ccccc1C(C)=O,"inconclusive: 4.11 µM [falling, full curve, poor fit]",
COc1ccc(N2CCN(C(=O)c3ccc4c(=O)n5c(nc4c3)CCCCC5)CC2)cc1,"inconclusive: 9.2 µM [activator, partial curve, poor fit]",
O=C(NC1CCCC1)c1cc(-c2ccccc2O)on1,,inconclusive: 4.8%
O=C(Nc1cccc([N+](=O)[O-])c1)Nc1ccc(Cl)cn1,,inconclusive: 8.4%
Cc1ccc(S(=O)(=O)N2CCN(Cc3ccco3)CC2)c(C)c1,,inconclusive: 5.36%
Cc1ccc(-c2nnn(CC(=O)N(c3ccccc3F)C(C(=O)NC3CCCC3)c3ccco3)n2)o1 (configuration not stated),,inconclusive: 11.3%
FC(F)(F)c1ccc(C2[C@H]3CN(CC4CCCCC4)[C@H](c4ccccc4)C34CC2(c2cccnc2)C4)cc1 (some centres not stated),,inconclusive: 9.45%
COCCCNC(=O)CCn1c(=O)c2ccccc2n(CC(=O)Nc2ccccc2C)c1=O,"inconclusive: 0.206 µM [activator, full curve]",
Fc1ccc2[nH]c3c(NCCN4CCOCC4)ncnc3c2c1,,inconclusive: 11.3%
CCCCCC(=O)N/N=C(\C)c1ccc(Cl)cc1,,inconclusive: -24.6%
CC(C)C(=O)Nc1c2c(nn1-c1ccc(F)cc1)CSC2,"inconclusive: 6.51 µM [activator, single point]",
CC(=O)n1cc(/C=N/NC(=O)c2sc(C)nc2C)c2ccccc21,,inconclusive: -23.5%
Cc1ccc(C)c(NC(=O)NCc2ccccn2)c1,"inconclusive: 5.8 µM [activator, full curve]",
Cc1cc(C(F)(F)F)nn1CC(=O)NCc1ccccc1,"inconclusive: 0.0046 µM [activator, full curve, poor fit]",
